Measured values reported in PubChem BioAssay AID624297 (National Center for Advancing Translational Sciences (NCATS), 2012).
The whole screen tested about 340,000 compounds, of which about 6,200 (1.8%) were called active. This list was built around the results that the source calls inconclusive (neither active nor inactive); the mix of calls is not that of the screen. Calls come from the whole dose curve; as a rule, active = well fitted activation curve with a large enough effect; inconclusive = small, poorly fitted or top-dose-only effect; inactive = no such curve, though single readings can be large or run the other way. Potencies of inconclusive entries are doubtful fits and often do not repeat.

Test: A quantitative high throughput screen for small molecules that induce DNA re-replication in SW480 colon adenocarcinoma cells. Note: nearly all actives have a fitted effect of over 55% in size.
Settings: Hoechst DNA content imaging, 48 h; series mostly up to 46.1 µM
How it was run: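 Hoechst fluorescence of nuclei (405 nm excitation, 500-530 nm emission) measured by plate-scanning imager after 48 hr compound exposure at 37 C; re-replication scored as increased number of nuclei with elevated intensity.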
Potency is the fitted concentration of half-maximal effect.

Compound	Potency
CN(Cc1ccc(C#CCCO)cc1)CC1CCCN(CCc2ccc(Cl)cc2)C1 (stereo not drawn)	inconclusive: 29.1 µM [activator, single point]
CCN(CC(=O)Nc1c(F)cccc1F)C(=O)c1cc2c(cc1Cl)N1CCCCCC1=NS2(=O)=O	inactive
Cc1cc(/C=C(\C#N)c2nc3ccccc3[nH]2)c(C)n1C	inconclusive: 0.092 µM [activator, full curve, poor fit]
Cc1cccc(-c2cc3nc(-c4ccccc4)cc(=O)n3[nH]2)c1	inconclusive: 23.1 µM [activator, single point]
COc1ccc(NC(=O)C2CCN(c3nc(C)cc(C)n3)CC2)cc1	inactive
Cc1cc(N2CCC(C(=O)Nc3ccc(F)cc3)CC2)nc(-c2ccccc2)n1	inactive
CC1CCCCC12NC(=O)N(CC(=O)Nc1ccc3[nH]c(=O)[nH]c3c1)C2=O (stereo not drawn)	inactive
Cc1ccc(NC(=O)c2oc3ccc(S(=O)(=O)N4CCC5(CC4)OCCO5)cc3c2C)cc1C	inactive
Cc1cc(C)nc(SCC(=O)Nc2ncc(C(F)(F)F)cc2Cl)n1	inactive
CCCCCCCCC(=O)N/N=C(\C)c1ccco1	inactive
O=C1C=CC(=O)c2c(O)c(N3CCN(CCOCCO)CC3)c(Br)c(O)c21	inconclusive: 1.46 µM [activator, full curve]
COC(=O)c1ccccc1NC(=O)Cc1ccccc1OC	inactive
O=C(NC1(O)C(=O)c2ccccc2C1=O)c1c(Cl)cccc1Cl	inconclusive: 0.731 µM [activator, full curve, poor fit]
COc1ccc(CNC(=O)C[C@H]2C[C@H](C(=O)N3CCCCC3)[C@@]3(CCc4ccccc4)c4[nH]c5cc(-c6ccco6)ccc5c4CCN3C2=O)cc1OC	inconclusive: 29.1 µM [activator, partial curve, poor fit]
CC(=O)Nc1ccc(NC(=O)Cc2ccc(-c3ccccc3)cc2)cc1	inactive
Cc1cccc(C(=O)NNC(=O)C23CC4CC(CC(C4)C2)C3)c1O	inconclusive: 29.1 µM [activator, single point]
COCCNc1oc(/C=C/c2ccccc2OC)nc1S(=O)(=O)c1ccccc1	inconclusive: 23.1 µM [activator, single point]
CCN(c1cccc(C)c1)S(=O)(=O)c1ccc2c(c1)CCN2C(C)=O	inconclusive: 35.5 µM [activator, single point]
O=[N+]([O-])c1ccc(NN=Cc2cccc(O)c2)nc1	inconclusive: 20.6 µM [activator, single point]
N#CC1(NC(=O)CN2C(=O)c3ccc([N+](=O)[O-])cc3C2=O)CCCCC1	inactive
CCOC(=O)C1(N(CC)CC)Sc2cc(C)ccc2NC1=O (stereo not drawn)	inconclusive: 29.1 µM [activator, single point]
CSc1nc2nc(C)c(CCC(=O)OCC(=O)Nc3ccc(F)cc3)c(C)n2n1	inactive

Compound	Potency
O=C(Nc1cccc(S(=O)(=O)N2CCCCC2)c1)c1ccccc1NS(=O)(=O)c1ccc(F)cc1	inconclusive: 29.1 µM [activator, single point]
Cc1ccc(C(=O)c2coc3ccc(O)c(CN4CCN(C)CC4)c23)cc1	inconclusive: 29.1 µM [activator, single point]
COc1cc(OC)cc(C(=O)NC(=S)NNC(=O)[C@H]2C[C@@H]2c2ccccc2)c1	inactive
Cc1ccc(C(=O)c2oc3ccccc3c2N)cc1	inconclusive: 35.5 µM [activator, single point]
O=C(O)c1ccc(N/N=C/c2cc3cc4c(cc3nc2Cl)OCCO4)cc1	inconclusive: 16.4 µM [activator, single point]
O=c1c(-c2nc3ccccc3s2)cccn1Cc1ccc(Cl)cc1	inconclusive: 4.61 µM [activator, single point]
Cc1ccc(S(=O)(=O)ON=C2CCN(S(=O)(=O)c3ccccc3)CC2)cc1	inactive
CC(C)(C)OC(=O)NCc1ccc(CNC(=O)c2nc[nH]c2C(=O)N2CCN(c3ccccc3)CC2)cc1	inconclusive: 0.146 µM [activator, full curve, poor fit]
COc1cc2c(c(OC)c1OC)-c1ccc(N(C)CC(OC)OC)c(=O)cc1[C@@H](NC(C)=O)CC2	active: 1.46 µM
Cc1ccc(NC(=O)CNC2CCCCC2)cc1Cl	inconclusive: 29.1 µM [activator, single point]
COc1ccc(/C=C(/NC(=O)c2cccs2)C(=O)Nc2ccc(C)cc2)cc1OC	inconclusive: 0.58 µM [activator, full curve, poor fit]
CCN1C=C(C(=O)c2ccccc2)C(=O)CC1	inactive
CSc1ccc(C(=O)N2CCc3ccc(NC(=O)c4ccccn4)cc3C2)cc1	inconclusive: 16.4 µM [activator, partial curve, poor fit]
CCn1cc([N+](=O)[O-])c(C(=O)N2N=C(c3ccc(OC)cc3OC)CC2c2ccccc2O)n1 (stereo not drawn)	inconclusive: 23.1 µM [activator, partial curve, poor fit]
Nc1c(C(=O)NCCc2ccccc2)sc2nc(N3CCOCC3)c3c(c12)CCCC3	active: 14.6 µM
O=[N+]([O-])C(=C1NCCN1)C(Cl)=C(Cl)Cl	inactive
CCN(CC)CC(O)COCCC12CC3CC(CC(C3)C1)C2 (stereo not drawn)	inconclusive: 29.1 µM [activator, single point]
CCOc1ccc(NC(=O)Cn2sc3nc(C)cc(C)c3c2=O)cc1	inconclusive: 10.3 µM [activator, partial curve, poor fit]
Cc1ccc(S(=O)(=O)c2cc3c(=O)n4ccccc4nc3n(CCc3ccccc3)c2=N)cc1	inconclusive: 5.8 µM [activator, full curve, poor fit]
Cc1nc(Cl)sc1C(=O)Nc1ccc(F)cc1	inconclusive: 29.1 µM [activator, single point]
Cc1ccc(-c2nc(-c3cccnc3)sc2CC(=O)Nc2ccc3nc(C)sc3c2)cc1	inconclusive: 18.4 µM [activator, partial curve, poor fit]

4 compounds already listed, sorted by SMILES length, smallest number first:
Compound	Potency
O=C(O)c1ccc(N/N=C/c2cc3cc4c(cc3nc2Cl)OCCO4)cc1	inconclusive: 16.4 µM [activator, single point]
CSc1nc2nc(C)c(CCC(=O)OCC(=O)Nc3ccc(F)cc3)c(C)n2n1	inactive
Nc1c(C(=O)NCCc2ccccc2)sc2nc(N3CCOCC3)c3c(c12)CCCC3	active: 14.6 µM
CC1CCCCC12NC(=O)N(CC(=O)Nc1ccc3[nH]c(=O)[nH]c3c1)C2=O (stereo not drawn)	inactive
